Assay results from PubChem BioAssay AID504467 (National Center for Advancing Translational Sciences (NCATS), 2011).
Screen size: about 330,000 compounds; about 7,700 (2.3%) were called active. The shares of active, inactive and inconclusive entries below differ from those in the screen. Calls come from the whole dose curve; as a rule, active = well fitted inhibition curve with a large enough effect; inconclusive = small, poorly fitted or top-dose-only effect, or effect the other way; inactive = flat fitted curve, though single readings scatter. Where the call is inconclusive, the potency comes from a doubtful curve fit.

test: qHTS screen for small molecules that inhibit ELG1-dependent DNA repair in human embryonic kidney (HEK293T) cells expressing luciferase-tagged ELG1; conditions: HEK293T ELG1-luciferase reporter, luminescence, 16 h, DNA damage induced by 5-fluorouridine; series mostly up to 46.1 µM; note: nearly all actives have a fitted effect of over 55% in size
In short: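 Cells (2,000 per well) received 5-fluorouridine plus test compound or DMSO and were incubated 16 hr at 37 °C, 5% CO2. Luciferase activity was read by luminescence 30 min after ONE-Glo addition; signal suppression marked inhibition of damage-induced ELG1 function.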
Potency is the fitted concentration of half-maximal effect.

**Q.** With `Cn1c(CNC(=O)C2CCC(=O)N(CCc3cccc(F)c3)C2)nc2ccccc21` (centres undefined) as the compound, how does the Potency read?
**A.** The Potency was “inactive”.

**Q.** With `CSc1ncccc1C(=O)OCC(=O)NCCC1=CCCCC1` as the compound, how does the Potency read?
**A.** The Potency was inconclusive: 18.3 µM [activator, partial curve, poor fit].

**Q.** With `COc1ccc(CC(=O)N2CCN(c3cccc(C)c3C)CC2)cc1` as the compound, how does the Potency read?
**A.** Its Potency is “inactive”.

**Q.** Which Potency does the source give for `Cc1cc2nc(SCC(=O)Nc3ccccc3C(=O)O)[nH]c2cc1C` here?
**A.** The Potency was inconclusive: 16.4 µM [activator, partial curve].

**Q.** Which Potency does the source give for `Cc1ccc(S(=O)(=O)N2[C@@H](c3ccc(Br)cc3)C(C(=O)O)=CC[C@H]2c2ccc(C(C)C)cc2)cc1` here?
**A.** Its Potency is “inactive”.

**Q.** With `CC(NC(=O)NC(=O)c1ccc(F)cc1)C1CC1` (centres undefined) as the compound, how does the Potency read?
**A.** The Potency was inconclusive: 5.8 µM [activator, single point].

**Q.** For `CCc1c(C)nc(SCc2ccccn2)[nH]c1=O`, which Potency is on record?
**A.** Its Potency is inconclusive: 29.1 µM [activator, single point].

**Q.** For `O=C(Nc1ccc(N2CCN(C(=O)c3ccccc3)CC2)cc1)c1cccnc1`, which Potency is on record?
**A.** Its Potency is inconclusive: 14.6 µM [inhibitor, partial curve, poor fit].

**Q.** Which Potency does the source give for `COCCNc1oc(/C=C/c2ccccc2)nc1C#N` here?
**A.** Its Potency is inconclusive: 16.4 µM [activator, partial curve].

**Q.** For `Cc1c(C(=O)Nc2ccc3oc(-c4cccnc4)nc3c2)oc2ccccc12`, which Potency is on record?
**A.** Its Potency is inconclusive: 13 µM [inhibitor, partial curve, poor fit].

**Q.** For `Cc1cn2c(=O)c(C(=O)N3CCN(c4ccccc4)CC3)cnc2s1`, which Potency is on record?
**A.** Its Potency is inconclusive: 23.1 µM [activator, single point].

**Q.** For `CN(C)c1oc(/C=C/c2ccccc2)nc1C#N`, which Potency is on record?
**A.** The Potency was inconclusive: 18.4 µM [activator, partial curve].

**Q.** Which Potency does the source give for `Cc1ccc2c(c1)nnn2C1CCN(CC(=O)N(c2ccccc2)c2ccccc2)CC1` here?
**A.** Its Potency is active: 16.4 µM.

**Q.** Which Potency does the source give for `Cn1ccsc1=NC(=O)c1cc(S(=O)(=O)N2CCOCC2)ccc1F` here?
**A.** Its Potency is “inactive”.

**Q.** With `CCn1nnc(-c2ccccc2NS(=O)(=O)c2ccc(S(=O)(=O)N(C)C3CCCCC3)cc2)n1` as the compound, how does the Potency read?
**A.** Its Potency is inconclusive: 29.1 µM [inhibitor, single point].

**Q.** For `CCOC(=O)N1CCN(C(=O)c2cc(COc3cccc(C(C)=O)c3)on2)CC1`, which Potency is on record?
**A.** Its Potency is inconclusive: 9.2 µM [activator, partial curve].

**Q.** With `O=C(Nc1cccc(C(=O)O)c1)Nc1cccc2ccccc12` as the compound, how does the Potency read?
**A.** Its Potency is inconclusive: 13 µM [activator, partial curve].

**Q.** Which Potency does the source give for `Cc1ccc(S(=O)(=O)N2CCCC(c3nc(-c4ccc(C)o4)no3)C2)cc1` (centres undefined) here?
**A.** Its Potency is “inactive”.

**Q.** For `CCCCC(=O)N/N=C(C)/C=C/c1ccccc1F`, which Potency is on record?
**A.** The Potency was inconclusive: 32.6 µM [activator, single point].
